Results from patent US6495663B1, “Method and composition for enhancing transport across biological membranes” (The Board of Trustees of the Leland Stanford Junior …, priority 1997, dated 2002).
At least one structure is not confirmed: it was looked up by name or label, or the drawing left a doubt.

Test system: Jurkat cells
Test: Fluorescence assay of cellular uptake of peptide-fluorescein conjugates (FACS)
Format: cell-based, human
Settings: FIGS. 1A-1C

O=C1OC2(c3ccc(O)cc3Oc3cc(O)ccc32)c2ccccc21 [fluorescein]
cellular uptake (transport of fluorescein into cells): negligible
